Data reported in patent US6451982 (SCHERING, dated 2002).
Results are given in words; binding and its absence hold for the method and conditions named. Some entries that bind do so weakly or less than the wild type.

Key:
[1] = molecular target: T1, recombinant human interleukin-5 (human, UniProt P05113 20-134); test: captured antibody on plate, 125I-IL-5 binding, Scatchard analysis
T1 sequence (looked up): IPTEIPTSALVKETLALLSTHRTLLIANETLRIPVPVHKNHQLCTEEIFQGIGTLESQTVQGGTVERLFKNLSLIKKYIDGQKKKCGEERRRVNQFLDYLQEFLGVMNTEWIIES
Description: To determine whether the humanized antibodies retained the ability to specifically bind to human IL-5, apparent dissociation constants of antibody/antigen complexes were measured. This was done by coating enzyme immunoassay plates with mouse anti-human IgG_4-Fc (5 µg per ml, 100 ill per well) in 50 mM bicarbonate buffer, pH 9.5. The plates were then blocked at room temperature for 90 minutes with BLOTTO, washed 3 times, and incubated at 37° C. for 2 hours with one of the humanized antibodies, either purified (100 µl per well with a final concentration of 0.05 µg per ml) or in the form of conditioned medium (100 µl per well).
After the plates were washed 3 times, a dilution series of ^125I-labeled human IL-5 at concentrations between 4,000 pM and 2 pM was applied to the wells in each plate in final volumes of 100 µl. All test wells were run in triplicate. Background binding was determined by using a 1000-fold molar excess of unlablled human IL-5 in control wells. The reactions were allowed to equilibrate at room temperature for 2 hours, at which time the wells were aspirated and washed 5 times with TBST. The wells were then separated and counted in a Pharmacia LKB γ-counter. All nonspecific binding controls were run in duplicate. The values obtained for bound human IL-5 were subjected to Scatchard analysis (using RADLIG software) to obtain dissociation constant (kd) values.

[2] = molecular target: T1, recombinant human interleukin-5; test: affinity chromatography on immobilized human IL-5

B1: humanized antibody CMX5-1 (antibody, V domains shown)
VH: QVKLVQAGGGVVQPGRSLRLSCIVSGLSLTSNSVNWIRQAPGKGLEWVALIWSNGDTDYNSAIKSRFTISRDNSKSTLYMQMNSLRTEDTAVYFCAREYYGYFDYWGQGVLVTVSS
VL: DIQMTQSPSSLSVSVGDRVTITCLASEGISSYLAWYQQKPGLAPLLLIYGANSLQTGVPSRFSGSGSATDFTLTISSLQPEDIATYYCQQSYKFPNTFGQGTKVDVKR
notes: VH HIL maximal, VL LAY maximal; also called CMX1; antibody from clone CJA25
[1]
  binding: binds
[2]
  binding: binds
